Structures can show the parent of a compound that is named as a salt.
What was measured:
[1] = biological target: α1 adrenalin receptor; assay: Binding test on [3H] prazosin, cerebral cortex receptor fraction; design: species or system SD rats; details: rat cerebral cortex receptor fraction, about 0.2 nM [3H] prazosin, room temperature 60 min; read-out: α 1
Experimental: (1) Binding test on serotonin 1A, serotonin 2 and α1 adrenalin receptors
As radioisotope-labeled compounds, use was made of the following reagents (mfd. by NEN). • 3) [^3H] 8-Hydroxy-dipropylaminotetralin (8-OH-DPAT). • 4) [^3H] Ketanserin hydrochloride. • 5) [^3H] Prazosin.
These compounds and test compounds, when insoluble in water, were dissolved in ethanol and then diluted with distilled water so as to each give an ethanol concentration of 10%. Methysergide maleate was dissolved in distilled water before using.
Use was made of SD rats aged 6 to 8 weeks.
The rats were sacrificed by dcapitation to extirpate the cerebra. […]
IC50 was calculated by the probit method, while Ki was determined in accordance with the following formula: Ki=IC50(1+c/Kd) wherein c represents the concentration of the radioisotope-labeled compound, and Kd represents the dissociation constant of the radioisotope-labeled compound with respect to the receptor determined by Scatchard's analysis. […]
To the receptor fraction of the cerebral cortex were added a test compound and about 0.2 nM of [^3H] prazosin and the resultant mixture was incubated at room temperature for 60 min. […] After washing the glass filter with 50 mM Tris hydrochloride (pH 7.4), the radioactivity of the receptor was measured with a liquid scintillation counter. […]

[2] = biological target: T1, serotonin 1A receptor (Rattus norvegicus, UniProt P19327); assay: Binding test on [3H] 8-hydroxy-dipropylaminotetralin, hippocampus receptor fraction; design: species or system SD rats
T1 construct: To the receptor fraction of the hippocampus were added a test compound and 0.5 nM of [^3H]; 8-hydroxy-dipropylaminotetralin; from tissue; host or cells: rat hippocampus membrane fraction
T1 sequence (P19327 1-422): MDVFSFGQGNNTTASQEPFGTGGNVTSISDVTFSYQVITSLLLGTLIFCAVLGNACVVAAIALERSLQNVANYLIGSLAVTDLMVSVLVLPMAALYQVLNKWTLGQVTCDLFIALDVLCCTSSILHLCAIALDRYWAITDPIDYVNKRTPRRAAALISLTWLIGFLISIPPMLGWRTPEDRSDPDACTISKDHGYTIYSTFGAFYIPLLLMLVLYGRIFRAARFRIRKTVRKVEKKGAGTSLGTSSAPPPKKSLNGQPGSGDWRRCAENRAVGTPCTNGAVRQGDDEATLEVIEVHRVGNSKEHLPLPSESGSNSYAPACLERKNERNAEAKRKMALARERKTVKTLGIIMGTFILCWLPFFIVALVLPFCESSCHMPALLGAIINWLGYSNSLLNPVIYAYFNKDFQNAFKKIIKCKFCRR

Compound: CN1CCC(=C2c3ccccc3C=Cc3ccccc32)CC1 [Cyproheptadine, cyproheptadine hydrochloride, reference compound]
- Ki [1]: 1900 nM
- Ki [2]: 29.5 nM

Reference: patent publication US6875761B2 (Eisai Co., Ltd., priority 1997, dated 2005)
